{"source": "PubChem BioAssay AID602196 (INSERM, 2012)", "screen": "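Genes whose knock-down alters cisplatin killing of lung cancer cells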", "cells": "human A549 lung cancer cells", "knock-down reagent": "siRNA pair against human genes", "time to read-out": "48 h transfection before cisplatin; time from cisplatin to read-out not stated", "treatment": "cisplatin at a dose killing half of control-siRNA cells; exact dose and duration not given", "measured": "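Shift in cisplatin death relative to control siRNA, from -50 (all cells die) to +50 (no cells die); siRNAs harmful on their own scored 0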", "direction": "two-siRNA summed score (-2 to +2): higher = both siRNAs protect from cisplatin killing; -2 means both sensitise", "rule for the call": "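siRNAs harmful alone (LDH or WST-1) get 0; others get +1 for less and -1 for more cisplatin killing; genes are active when the two siRNAs give the same sign, summing to ±2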", "meaning of the calls": "active = both siRNAs shift cisplatin killing the same way; inactive = no consistent shift, or siRNA harmful alone", "note": "Here is one part, drawn at random, of about 23,000 reagents. 455 of them (2%) were called active. 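Active includes both protection and sensitisation; some change values fall well beyond the stated -50 to +50 range.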 A number with no mark means an inactive call. The numbers tell different reagents against one gene apart. Further read-outs or replicates are left out here. The record does not give: the amount of reagent."}
{"Gene":"C1QTNF3 (C1q and TNF related 3)","reagent":1,"two-siRNA summed score (-2 to +2)":0}
{"Gene":"PTEN (phosphatase and tensin homolog)","reagent":1,"two-siRNA summed score (-2 to +2)":0}
{"Gene":"AKAP7 (A-kinase anchoring protein 7)","reagent":1,"two-siRNA summed score (-2 to +2)":0}
{"Gene":"TEX261 (testis expressed 261)","reagent":1,"two-siRNA summed score (-2 to +2)":0}
{"Gene":"LOC441803","reagent":1,"two-siRNA summed score (-2 to +2)":0}
{"Gene":"MRTFB (myocardin related transcription factor B)","reagent":1,"two-siRNA summed score (-2 to +2)":0}
{"Gene":"IGLL1 (immunoglobulin lambda like polypeptide 1)","reagent":1,"two-siRNA summed score (-2 to +2)":0}
{"Gene":"PTGER3 (prostaglandin E receptor 3)","reagent":1,"two-siRNA summed score (-2 to +2)":0}
{"Gene":"PTGER3 (prostaglandin E receptor 3)","reagent":2,"two-siRNA summed score (-2 to +2)":0}
{"Gene":"LOC399888","reagent":1,"two-siRNA summed score (-2 to +2)":0}

Part of the list above, reformatted:
AKAP7 (A-kinase anchoring protein 7): two-siRNA summed score (-2 to +2) = 0
TEX261 (testis expressed 261): two-siRNA summed score (-2 to +2) = 0

More entries follow.
{"Gene":"DDX18 (DEAD-box helicase 18)","reagent":1,"two-siRNA summed score (-2 to +2)":0}
{"Gene":"DDOST","reagent":1,"two-siRNA summed score (-2 to +2)":1}
{"Gene":"APBB2 (amyloid beta precursor protein binding family B member 2)","reagent":1,"two-siRNA summed score (-2 to +2)":0}
{"Gene":"BTN2A1 (butyrophilin subfamily 2 member A1)","reagent":1,"two-siRNA summed score (-2 to +2)":-1}
{"Gene":"FRK (fyn related Src family tyrosine kinase)","reagent":1,"two-siRNA summed score (-2 to +2)":0}
{"Gene":"LOC440720","reagent":1,"two-siRNA summed score (-2 to +2)":0}
{"Gene":"NRK (Nik related kinase)","reagent":1,"two-siRNA summed score (-2 to +2)":1}
{"Gene":"LOC389443","reagent":1,"two-siRNA summed score (-2 to +2)":0}
{"Gene":"RELB (RELB proto-oncogene, NF-kB subunit)","reagent":1,"two-siRNA summed score (-2 to +2)":0}
{"Gene":"ASPH (aspartate beta-hydroxylase)","reagent":1,"two-siRNA summed score (-2 to +2)":0}
{"Gene":"ZNF281 (zinc finger protein 281)","reagent":1,"two-siRNA summed score (-2 to +2)":0}
